Source: patent US7807662B2, “Platinum IV complex inhibitor” (University of South Florida, priority 2004, dated 2010)

System: hSIE oligonucleotide probe
Test: Integrity of IS3 295-treated hSIE oligonucleotide probe

SMILES: CCC(O)N1CCN(C(O)CC)CC1 (centres unmarked) [IS3 295]
- overall integrity of treated hSIE oligonucleotide (oligonucleotide melting and re-annealing study): preserved
- in vitro binding activity of Stat3 to compound-treated hSIE probe (oligonucleotide treated 30 minutes, then radiolabeled): no observable effect
